Publication PMC13532744

Tests used:
[1] = target: 6xHis-caspase-4^C254A (human); experiment: cross-linking; BS3-crosslinked gel bands of caspase-4^C254A, 6xHis-UBXN1 and K63-Ub4 digested with trypsin; crosslinked peptides identified by UPLC-MS/MS; both purified
[2] = target: 6xHis-caspase-4^C254A (human); experiment: cross-linking; combinations of caspase-4^C254A, 6xHis-UBXN1 and K63-Ub4 (10 μM each) at room temperature 2 h, then BS3 2.5 mM on ice 1 h; SDS-PAGE, Coomassie blue and immunoblot; both purified

binding [1]: binds
binding [2]: binds weakly
B1: 6xHis-UBXN1 (protein, UniProt Q04323 1-297)
chain: MAELTALESLIEMGFPRGRAEKALALTGNQGIEAAMDWLMEHEDDPDVDEPLETPLGHILGREPTSSEQGGLEGSGSAAGEGKPALSEEERQEQTKRMLELVAQKQREREEREEREALERERQRRRQGQELSAARQRLQEDEMRRAAEERRREKAEELAARQRVREKIERDKAERAKKYGGSVGSQPPPVAPEPGPVPSSPSQEPPTKREYDQCRIQVRLPDGTSLTQTFRAREQLAAVRLYVELHRGEELGGGQDPVQLLSGFPRRAFSEADMERPLQELGLVPSAVLIVAKKCPS

Results are given in words; binding and its absence hold for the method and conditions named. Binding calls can cover weak binding; strength is not graded here. Tags and fused reporters may be left off the sequences shown.
